This is an account of results in the supplement of paper PMC12889115.

For this test, the system named is Salmonella enterica serovar Typhimurium SL1344. Description: bacterial growth OD600 after 18 h with compound and polymyxin B; higher = more bacterial growth (less inhibition). The following applies: 50 µM, Mueller-Hinton broth.

This is one part of the list. Values are raw readings; no control value is given beside them.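 Primary screen: polymyxin B was added at a level permeabilizing Salmonella outer membranes while sparing inner membranes. DMSO wells, both with and without polymyxin B, established maximum growth. Plate-to-plate variation meant each plate was ranked on its own, and the lowest-OD600 compounds were selected as hits.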

Consider `C=CCO[C@H]1[C@H](NC(=O)CSC)c2ccccc2C12CCN(Cc1cccc3cnccc13)CC2`, for which the “bacterial growth OD600” value (polymyxin B 0.75 µg/mL) stood at 0.82.

Consider `COc1ccc(F)c(CC2(CCC(=O)N3CC4(C)CC3CC(C)(C)C4)CCC(=O)N2)c1` (stereo not given), for which, for the setting “polymyxin B 0.75 µg/mL”, the “bacterial growth OD600” value came out at 1.03.

With `CC(Cc1ccc(O)cc1)N1CCC(N2CCC(C(=O)NCc3cccnc3)CC2)CC1` (stereo not given), the “bacterial growth OD600” value (polymyxin B 1 µg/mL) is 1.11.

Consider `CCOC(=O)N1CCC(N2C(=O)CCC2CCNCc2ccc(C(=O)OC)cc2)CC1` (stereo not given), for which the “bacterial growth OD600” value (polymyxin B 0.75 µg/mL) came to 0.846.

Turning to `COCc1noc(-c2ccc(N(C)C(C)c3ccccc3OC)nc2)n1` (stereo not given), the “bacterial growth OD600” value (polymyxin B 1 µg/mL) turned out to be 0.774.

As for `COc1ccc(NC(=O)CCC2CCCN(C(=O)CCc3c(C)noc3C)C2)cc1Cl` (stereo not given), the “bacterial growth OD600” value (polymyxin B 1 µg/mL) amounted to 0.963.

For the compound `CN(C(=O)c1ccco1)C(Cc1ccc(F)cc1F)C1CCN(Cc2ccc3c(c2)OCO3)CC1` (stereo not given), the “bacterial growth OD600” value (polymyxin B 0.75 µg/mL) is 0.646.

Take `CCOC(=O)C1(Cc2ccc(F)cc2)CCCN(C(=O)CCc2cnn(C)c2)C1` (stereo not given): the “bacterial growth OD600” value (polymyxin B 1 µg/mL) worked out at 0.681.

Turning to `CCn1nc(C)c(CN(C)Cc2nc(-c3ccccc3NC(=O)c3ccsc3)oc2C)c1C`, the “bacterial growth OD600” value (polymyxin B 0.75 µg/mL) was 0.798.

For `CC(=O)c1cc(C(=O)N2CCC(C3CCN(C)C3)CC2)[nH]n1` (stereo not given), where the note is “polymyxin B 0.75 µg/mL”, the “bacterial growth OD600” value is 0.819.

For `COc1ccc(OCC(=O)NC(C)c2cnn(-c3ccccc3C)c2C)cc1` (stereo not given), under “polymyxin B 1 µg/mL”, the “bacterial growth OD600” value stood at 0.887.

As to `CN(Cc1cccc(-n2cccn2)c1)C(=O)C1CCC(=O)N(C2CC2)C1` (stereo not given), for the setting “polymyxin B 1 µg/mL”, the “bacterial growth OD600” value was determined as 0.836.

As to `O=C(NCC1CCCN(Cc2c[nH]nc2-c2ccccc2)C1)c1cccs1` (stereo not given), the “bacterial growth OD600” value (polymyxin B 1 µg/mL) amounted to 0.879.

Turning to `COc1ccc(-n2cc(CNCC(C)O)c(-c3ccccc3Cl)n2)cc1` (stereo not given), the “bacterial growth OD600” value (polymyxin B 1 µg/mL) stood at 1.02.

As to `Cc1cccc(C(=O)N2CCC(C3CCN(Cc4cccnc4)CC3)C2)n1` (stereo not given), the “bacterial growth OD600” value (polymyxin B 0.75 µg/mL) was determined as 0.848.

On to `COc1cc(-c2n[nH]cc2CN2CCN(C3CCCCC3)CC2)cc(OC)c1OC`, for which, for the setting “polymyxin B 1 µg/mL”, the “bacterial growth OD600” value came out at 1.16.

Turning to `O[C@@H]1CN(CCCC(F)(F)F)CC[C@H]1N1CCN(c2ccccc2F)CC1`, the “bacterial growth OD600” value (polymyxin B 1 µg/mL) was 1.08.

In the case of `OC1CCN([C@@H]2CCN(Cc3ccc4c(c3)Cc3ccccc3-4)C[C@H]2O)CC1`, where the note is “polymyxin B 1 µg/mL”, the “bacterial growth OD600” value turned out to be 0.91.

`COc1cccc(CCc2nnc(CCC(=O)N3CCCCC3C)o2)c1` (stereo not given): the “bacterial growth OD600” value (polymyxin B 1 µg/mL) came out at 0.876.

Consider `COCCNC(=O)c1ccc(OC)cc1OC1CCN(Cc2ccco2)CC1`, for which the “bacterial growth OD600” value (polymyxin B 1 µg/mL) stood at 0.815.

For `COc1ccc(C(=O)NCc2ccccc2C)cc1OC1CCN(C(C)C)CC1`, the “bacterial growth OD600” value (polymyxin B 0.75 µg/mL) turned out to be 0.852.

Turning to `CSCC(=O)N1CCCCC1C(=O)Nc1ccc(-n2nc(C)cc2C)cc1` (stereo not given), where the note is “polymyxin B 1 µg/mL”, the “bacterial growth OD600” value was 0.908.

Consider `Cc1ccc(C)c(-c2n[nH]cc2CN2C[C@H]3OC(=O)N(C4CCCC4)[C@H]3C2)c1`, for which the “bacterial growth OD600” value (polymyxin B 0.75 µg/mL) was 0.719.

As for `CCN(Cc1nc(C)c[nH]1)CC1CCN(CCc2ccccc2C)CC1`, the “bacterial growth OD600” value (polymyxin B 1 µg/mL) was 0.718.

Regarding `Cc1ccccc1C(CC(=O)NCC(N)=O)c1ccccc1` (stereo not given), the “bacterial growth OD600” value (polymyxin B 0.75 µg/mL) is 0.8.

Turning to `CCCn1cc(C(=O)N2CCC3(CCCN(CC4CC4)C3)C2)c(C)n1` (stereo not given), where the note is “polymyxin B 1 µg/mL”, the “bacterial growth OD600” value was 0.965.

Take `COC(=O)CCC(=O)NC1CCCc2c1cnn2-c1cccc(C)c1C` (stereo not given): where the note is “polymyxin B 1 µg/mL”, the “bacterial growth OD600” value was 0.922.

Regarding `CC(C)CNC(=O)C1CCCN(C2CCN(Cc3ccccc3)CC2)C1` (stereo not given), under “polymyxin B 0.75 µg/mL”, the “bacterial growth OD600” value was determined as 0.874.

As to `CC(C)N(C)c1ccc(C(=O)N2CCC(Cn3cccn3)CC2)cn1`, the “bacterial growth OD600” value (polymyxin B 0.75 µg/mL) stood at 0.938.

`COCC1CCN(C(=O)c2coc(COc3cccc(F)c3)n2)C1` (stereo not given): the “bacterial growth OD600” value (polymyxin B 1 µg/mL) worked out at 0.769.
